For one sequence, inhibition zone (IZ) results are on record in ChEMBL document CHEMBL1155281, “Synthesis, spectroscopic characterization and antibacterial activity of new cobalt(II) complexes of unsymmetrical tetradentate (OSN2) Schiff base ligands” (2009).

One experiment has as its system Staphylococcus aureus. The experiment in a line: Antibacterial activity against Staphylococcus aureus RITCC 1885 at 10 ug after overnight incubation by agar well diffusion method. The class given is functional, organism-based. A general note: In agar diffusion tests the substance spreads into inoculated agar from a disc or well.
The next experiment relates to Pseudomonas aeruginosa. The experiment is described as follows: Antibacterial activity against Pseudomonas aeruginosa RITCC 1547 at 10 ug after overnight incubation by agar well diffusion method. The class given is functional, organism-based.

Regarding GENTAMICIN, the inhibition zone (IZ) amounted to 20 mm in the experiment on Staphylococcus aureus and 16 mm with Pseudomonas aeruginosa.
